From patent US20180236053A1
These are yes or no findings as the source states them, for the method shown. Some results given as binding are weak or reduced against the parent protein; the word gives no strength.

By UniProt entry, the sequences of proteins in these tests, tags left out. Residues count along the entry.
UniProt P28907, residues 43-300: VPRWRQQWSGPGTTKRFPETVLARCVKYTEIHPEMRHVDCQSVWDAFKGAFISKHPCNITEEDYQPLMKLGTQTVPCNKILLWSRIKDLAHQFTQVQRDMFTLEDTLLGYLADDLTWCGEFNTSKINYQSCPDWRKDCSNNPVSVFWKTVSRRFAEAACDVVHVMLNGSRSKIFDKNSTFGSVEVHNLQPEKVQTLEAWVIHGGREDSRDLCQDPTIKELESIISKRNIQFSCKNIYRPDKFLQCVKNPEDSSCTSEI

biological target: CD38-Fc protein (produced by LakePharma) (UniProt P28907); test: flow cytometry, CD38-Fc fusion protein staining of purified CD38-deficient T cells transfected with CAR mRNA (FIG. 15)

Binder	binding
25A10-V1 CAR (protein) EVQLQQSGAELVRPGASVKLSCTASGFNIKDSLIHWVKQRPEQGLEWIGWIDPEDDKTKYAPKFQDKATLTADTSSNTAYLQLSTLTSEDTAIYYCVSRYINYYFAYWGQGTTLTVSSGGGGSGGGGSGGGGSDIVMTQSPSSLTVTAGEKVTMSCKSSQSLLHSGNQRNYLTWYQQKPGQPPKLLIYWASTRESGVPDRFTGSGSGTDFTLTISSVQAEDLAVYYCQNDYDYPYTFGGGTKLEIKGLAVSTISSFFPPGYQIYIWAPLAGTCGVLLLSLVITLYCKRGRKKLLYIFKQPFMRPVQTTQEEDGCSCRFPEEEEGGCELRVKFSRSADAPAYQQGQNQLYNELNLGRREEYDVLDKRRGRDPEMGGKPRRKNPQEGLYNELQKDKMAEAYSEIGMKGERRRGKGHDGLYQGLSTATKDTYDALHMQALPPR	binds
13F11-V1 CAR (protein) QIQLVQSGPELKKPGETVKISCKASGYTFKKYGMNWVKQAPGKGLKWMGWINTNTGEPTYAEEFKGRFAFSLETSASTAYLQINNLKNEDTATYFCARWYYGSTPSSYTMDYWGQGTSVTVSSGGGGSGGGGSGGGGSETTVTQSPASLSVATGEKVTIRCITSTDIDDDMNWYQQKPGEPPKVLISEGNTLRPGVPSRFSSSGYGTDFVFTIENTLSEDVADYYCLQSNNMPYTFGGGTKLEIKGLAVSTISSFFPPGYQIYIWAPLAGTCGVLLLSLVITLYCKRGRKKLLYIFKQPFMRPVQTTQEEDGCSCRFPEEEEGGCELRVKFSRSADAPAYQQGQNQLYNELNLGRREEYDVLDKRRGRDPEMGGKPRRKNPQEGLYNELQKDKMAEAYSEIGMKGERRRGKGHDGLYQGLSTATKDTYDALHMQALPPR	binds

The next lines start with the values.

binding	Binder
binds	16B5-V1 CAR (protein) QAYLQQSGAELVRSGASVKMSCKASGYTFTSYNLHWVKQTPGQGLEWIGYIYPGNGGTNYNQKFKGKATLTADTSSSTAYMQISSLTSEDSAVYFCARGGIYYYGSSLDYWGQGTTLTVSSGGGGSGGGGSGGGGSNIVLTQSPASLAVSLGQRATISCRASESVDNYGTTFMYWYQQKPGQPPKLLIYLASNLESGVPARFSGSGSGTDFTLTIDPVEADDAATYYCQQNKEDPWTFGGGTKLEIKGLAVSTISSFFPPGYQIYIWAPLAGTCGVLLLSLVITLYCKRGRKKLLYIFKQPFMRPVQTTQEEDGCSCRFPEEEEGGCELRVKFSRSADAPAYQQGQNQLYNELNLGRREEYDVLDKRRGRDPEMGGKPRRKNPQEGLYNELQKDKMAEAYSEIGMKGERRRGKGHDGLYQGLSTATKDTYDALHMQALPPR
binds	28F5-V1 CAR (protein) QIQLVQSGPELKKPGETVKISCKASGYTFTKYGMNWVKQTPGKGLKWMGWINTNSGEPTYAEEFKGRFAFSLETSASTAYLQINNLKNEDTATYFCARGAYYRYDGEVSYYAMDYWGQGTSVTVSSGGGGSGGGGSGGGGSQIILTQSPAIMSASLGERVTMTCTATSSLSSSYLHWYQQKPGSSPKLWIYSTSHLASGVPARFSGGGSGTSYSLTISSMEAEDAATYYCHQYHLSPYTFGGGTKLEIKGLAVSTISSFFPPGYQIYIWAPLAGTCGVLLLSLVITLYCKRGRKKLLYIFKQPFMRPVQTTQEEDGCSCRFPEEEEGGCELRVKFSRSADAPAYQQGQNQLYNELNLGRREEYDVLDKRRGRDPEMGGKPRRKNPQEGLYNELQKDKMAEAYSEIGMKGERRRGKGHDGLYQGLSTATKDTYDALHMQALPPR
